PubChem BioAssay AID1259308 | NCATS, 2017

- Screen: 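Candidate targets for better recombinant protein yield in mammalian cells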 (primary screen)
- System: human HEK293 embryonic kidney cells stably expressing firefly luciferase (HEK-CMV-Luc2-Hygro)
- Reagent: single siRNA against human genes, 0.8 pmol siRNA per well
- Time to read-out: 72 h
- Read-out: 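Reporter luminescence and viable-cell signal on separate replicate plates, given as percent of non-targeting control and median/MAD z-scores, plus per-cell luciferase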
- Reading the numbers: total luciferase, z-score and total luciferase, % of control: higher = more reporter protein produced; luciferase per cell, z-score: higher = more reporter output per viable cell; viable cells, % of control: higher = more viable cells
- Call rule: 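Active when the median/MAD z-score for overall luciferase is greater than 3; a gene was taken forward for validation with new siRNAs if at least two of its three siRNAs passed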
- Meaning of the calls: active = raised luciferase; inactive = no rise
Here is an unselected part of about 59,000 reagents. Of all reagents, about 1,510 (2.6%) are marked active. 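Calls use total luciferase alone and ignore viability, so some active siRNAs may act by altering cell number.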 Reagents against one gene are numbered here.

| gene symbol | siRNA no. | total luciferase, z-score | total luciferase, % of control | luciferase per cell, z-score | viable cells, % of control | call |
| --- | --- | --- | --- | --- | --- | --- |
| SUCO | 1 | -0.0568 | 80.8 | -0.183 | 94.7 | inactive |
| SUCO | 2 | 2.15 | 125 | 1.82 | 86.2 | inactive |
| SUCO | 3 | 0.31 | 88 | -0.262 | 105 | inactive |
| STXBP1 | 1 | -1.04 | 61.3 | -1.11 | 91.7 | inactive |
| STXBP1 | 2 | 1.57 | 113 | 1.13 | 93.7 | inactive |
| STXBP1 | 3 | 0.364 | 89.1 | 0.114 | 96.6 | inactive |
| CD83 | 1 | 0.475 | 91.3 | -0.312 | 111 | inactive |
| CD83 | 2 | 1.04 | 103 | 1.9 | 69.4 | inactive |
| CD83 | 3 | -1.78 | 46.4 | -1.43 | 75.7 | inactive |
| HSPB1 | 1 | -2.25 | 37.2 | -2.75 | 85.8 | inactive |
| HSPB1 | 2 | -0.241 | 77.1 | -0.781 | 106 | inactive |
| HSPB1 | 3 | -1.99 | 42.3 | -0.0442 | 47.8 | inactive |
| XRCC3 | 1 | 1.39 | 110 | 0.765 | 100 | inactive |
| XRCC3 | 2 | -0.561 | 70.7 | -0.91 | 100 | inactive |
| XRCC3 | 3 | -0.278 | 76.4 | -0.792 | 105 | inactive |
| XRCC3 | 4 | 1.32 | 108 | 1.58 | 79.7 | inactive |
| XRCC3 | 5 | 0.675 | 95.3 | 0.833 | 85.5 | inactive |
| XRCC3 | 6 | -1.57 | 50.8 | -0.694 | 68.1 | inactive |
| DPH2 | 1 | -0.604 | 69.9 | -1.26 | 109 | inactive |
| DPH2 | 2 | -0.234 | 77.2 | -0.691 | 104 | inactive |
| DPH2 | 3 | 2.63 | 134 | 2.09 | 86.5 | inactive |
| FMO1 | 1 | 0.614 | 94.1 | -0.106 | 108 | inactive |
| FMO1 | 2 | -0.0799 | 80.3 | -0.245 | 95.7 | inactive |
| FMO1 | 3 | 0.222 | 86.3 | -0.214 | 102 | inactive |
| ANAPC4 | 1 | -1.71 | 47.9 | -0.805 | 66.1 | inactive |
| ANAPC4 | 2 | -0.44 | 73.1 | -0.695 | 98.1 | inactive |
| ANAPC4 | 3 | -0.469 | 72.6 | -0.338 | 88.6 | inactive |
| PAX4 | 1 | 0.894 | 99.7 | 0.415 | 99.8 | inactive |
| PAX4 | 2 | -0.166 | 78.6 | -0.358 | 96.5 | inactive |
| PAX4 | 3 | -0.669 | 68.6 | -0.964 | 98.8 | inactive |
| SULF2 | 1 | -0.321 | 75.5 | -0.507 | 96.4 | inactive |
| SULF2 | 2 | -1.73 | 47.6 | -1.8 | 85.4 | inactive |
| SULF2 | 3 | -0.0259 | 81.4 | -0.718 | 110 | inactive |
| ADGRB1 | 1 | 0.804 | 97.9 | 1.76 | 68.8 | inactive |
| ADGRB1 | 2 | -0.51 | 71.7 | 0.651 | 67.5 | inactive |
| ADGRB1 | 3 | -1.32 | 55.6 | -0.309 | 67.3 | inactive |
| WRN | 1 | 0.245 | 86.8 | 0.411 | 87 | inactive |
| WRN | 2 | -0.477 | 72.4 | 0.0557 | 79.7 | inactive |
| WRN | 3 | 1.12 | 104 | 0.752 | 95.5 | inactive |
| FAM114A2 | 1 | 1.74 | 117 | 1.37 | 90.8 | inactive |
| FAM114A2 | 2 | 1.59 | 114 | 1.48 | 86 | inactive |
| FAM114A2 | 3 | 0.0466 | 82.8 | 0.627 | 78.5 | inactive |
| CSF2RA | 1 | 0.73 | 96.4 | 0.847 | 86.2 | inactive |
| CSF2RA | 2 | -0.924 | 63.5 | -1.05 | 93.5 | inactive |
| CSF2RA | 3 | -0.666 | 68.6 | -0.946 | 98.4 | inactive |
| ART5 | 1 | -2.04 | 41.4 | -1.61 | 70.6 | inactive |
| ART5 | 2 | 1.5 | 112 | 1.66 | 80.7 | inactive |
| ART5 | 3 | 0.69 | 95.6 | 0.733 | 88.1 | inactive |
| PHC1P1 | 1 | -0.26 | 76.7 | 0.177 | 81.8 | inactive |
| PHC1P1 | 2 | -0.729 | 67.4 | -0.543 | 86.9 | inactive |
| PHC1P1 | 3 | 2.29 | 127 | 1.23 | 103 | inactive |
| RAB20 | 1 | 0.181 | 85.5 | 0.448 | 84.9 | inactive |
| RAB20 | 2 | 0.207 | 86 | -0.123 | 99.3 | inactive |
| RAB20 | 3 | -1.9 | 44.2 | -1.56 | 74.5 | inactive |
| HLTF | 1 | -0.729 | 67.4 | -1.13 | 101 | inactive |
| HLTF | 2 | -0.545 | 71.1 | -0.678 | 94.9 | inactive |
| HLTF | 3 | -0.764 | 66.7 | -1.33 | 106 | inactive |

4 entries from above, showing only “luciferase per cell, z-score”:
STXBP1 #1: -1.11
STXBP1 #2: 1.13
STXBP1 #3: 0.114
CD83 #1: -0.312
